Results on one compound are retold here after patent publication US11236094B2, “Substituted pyrrolo[2,1-f][1,2,4]triazines as FGFR inhibitors” (CSPC ZHONGQI PHARMACEUTICAL TECHNOLOGY (SHIJIAZHUANG) CO., …, priority 2017, dated 2022).

Chains of the proteins cited; added tags and fusions are not shown. Residues count along the entry.
UniProt P11362, 22-822: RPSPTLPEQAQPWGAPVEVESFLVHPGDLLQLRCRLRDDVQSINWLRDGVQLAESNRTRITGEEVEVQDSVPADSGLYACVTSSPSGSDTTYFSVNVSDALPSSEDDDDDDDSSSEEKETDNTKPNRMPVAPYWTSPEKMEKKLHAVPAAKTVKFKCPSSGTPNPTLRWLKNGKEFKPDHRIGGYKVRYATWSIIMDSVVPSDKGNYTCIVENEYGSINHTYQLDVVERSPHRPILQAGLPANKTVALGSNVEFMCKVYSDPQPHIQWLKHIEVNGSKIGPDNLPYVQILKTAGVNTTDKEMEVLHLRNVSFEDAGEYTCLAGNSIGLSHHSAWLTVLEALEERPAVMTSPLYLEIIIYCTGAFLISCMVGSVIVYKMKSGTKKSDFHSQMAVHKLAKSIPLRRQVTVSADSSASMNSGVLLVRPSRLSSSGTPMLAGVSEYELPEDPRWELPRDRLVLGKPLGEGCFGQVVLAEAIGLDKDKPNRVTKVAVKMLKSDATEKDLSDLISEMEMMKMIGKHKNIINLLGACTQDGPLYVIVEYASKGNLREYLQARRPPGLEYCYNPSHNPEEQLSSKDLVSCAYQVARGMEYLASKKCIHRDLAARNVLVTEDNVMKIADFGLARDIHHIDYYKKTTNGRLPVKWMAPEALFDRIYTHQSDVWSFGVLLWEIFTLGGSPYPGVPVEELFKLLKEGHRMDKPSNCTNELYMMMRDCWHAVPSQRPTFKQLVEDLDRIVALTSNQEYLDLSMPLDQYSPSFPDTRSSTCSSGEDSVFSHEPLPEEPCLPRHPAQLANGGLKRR
UniProt P22455, 22-802: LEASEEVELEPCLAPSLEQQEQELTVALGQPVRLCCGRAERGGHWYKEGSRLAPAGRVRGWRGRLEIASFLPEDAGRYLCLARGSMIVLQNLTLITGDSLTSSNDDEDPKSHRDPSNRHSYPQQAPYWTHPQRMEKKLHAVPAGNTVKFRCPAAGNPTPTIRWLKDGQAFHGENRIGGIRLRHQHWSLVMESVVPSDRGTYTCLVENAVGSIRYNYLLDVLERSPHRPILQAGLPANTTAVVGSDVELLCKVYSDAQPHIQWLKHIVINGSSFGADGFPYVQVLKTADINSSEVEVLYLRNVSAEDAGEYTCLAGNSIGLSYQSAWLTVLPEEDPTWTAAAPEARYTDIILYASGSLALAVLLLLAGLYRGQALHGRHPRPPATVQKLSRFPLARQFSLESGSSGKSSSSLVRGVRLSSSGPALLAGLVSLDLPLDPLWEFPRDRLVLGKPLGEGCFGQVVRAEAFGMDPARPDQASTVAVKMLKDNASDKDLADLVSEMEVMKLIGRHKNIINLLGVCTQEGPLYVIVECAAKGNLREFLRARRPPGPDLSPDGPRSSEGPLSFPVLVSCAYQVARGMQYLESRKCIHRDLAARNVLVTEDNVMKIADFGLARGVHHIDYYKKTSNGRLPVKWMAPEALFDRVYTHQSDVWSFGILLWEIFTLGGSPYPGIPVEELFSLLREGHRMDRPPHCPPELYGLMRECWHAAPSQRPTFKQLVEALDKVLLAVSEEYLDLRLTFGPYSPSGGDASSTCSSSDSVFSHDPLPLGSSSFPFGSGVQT

SMILES strings stand for the structures.

One assay deals with human FGFR1 (Homo sapiens, UniProt P11362). Put plainly: 33P isotope-labeled kinase activity test, wild-type FGFR1.
The target of the next assay is human FGFR4 (Homo sapiens, UniProt P22455). Briefly: 33P isotope-labeled kinase activity test, wild-type FGFR4. The note with it: 33P-ATP 100 μM, 120 minutes.

What is called IC50 is the concentration needed to halve the response being measured. Higher therefore signals weaker potency in that assay. For `CCC(=O)N1CC[C@H](n2nc(C#Cc3cc(OC)cc(OC)c3)c3c(N)ncnc32)C1` [Reference Example 2, reference compound], the concentration for half-maximal inhibition (IC50) on human FGFR1 worked out at 0.57 µM; against human FGFR4, 8.75 µM.
